No constants are given. Whether binding was seen depends on the method and setting. Binding seen in cells or lysates may run through a third protein. Some entries that bind do so weakly or less than the wild type.
What was measured:
[1] = molecular target: HIV-1 IIIB capsid-nucleocapsid (CANC) nanotubes, assembled in vitro (HIV-1 IIIB) (UniProt P04591); assay: co-sedimentation; CANC pulldown: 200 ul of cleared hypotonic lysate of transfected 293T cells was mixed with 40 ul of 40 uM assembled CANC nanotubes for 1 h at room temperature. The mix was spun through a 70% sucrose cushion at 15,000 x g, and the pellet was washed. Input, supernatant and pellet were blotted with HA- and CA-specific antibodies. Parallel samples without CANC served as control; only the target purified
[2] = molecular target: HIV-1 IIIB capsid-nucleocapsid (CANC) nanotubes, assembled in vitro (HIV-1 IIIB) (UniProt P04591); assay: condition: 40 μl of 40 μM assembled CANC with 200 μl of cell lysate; co-sedimentation; CANC pulldown: 200 ul of cleared hypotonic lysate of transfected 293T cells was mixed with 40 ul of 40 uM assembled CANC nanotubes for 1 h at room temperature. The mix was spun through a 70% sucrose cushion at 15,000 x g, and the pellet was washed. Input, supernatant and pellet were blotted with HA- and CA-specific antibodies. Parallel samples without CANC served as control; only the target purified

Substance | binding [1] | binding [2]
HA-tagged cleavage and polyadenylation specific factor 6 (CPSF6) (from UniProt Q16630 1-551) | binds | 
HA-tagged firefly luciferase (from UniProt P08659 1-550) (enzyme) |  | no binding

From publication PMC5599759
